Laboratory results: patent publication US20170079281A1, “CITRUS-BASED ANTIMICROBIAL COMPOSITION” (priority 2015, published 2017)

Test: Sensory analysis of strawberry fillings, 9-points hedonic scale test
Settings: 0.2% Composition A or 0.1% sodium benzoate, 30 persons

O=C([O-])c1ccccc1.[Na+] [Sodium benzoate, sodium benzoate]
Sensory properties: Color: 6.81 ± 1.27^a | Sensory properties: Global appreciation: 6.72 ± 1.06^a | Sensory properties: Texture: 6.68 ± 1.41^a

Marks after values point to notes of the source that are not given here.
